Data as given in PubChem BioAssay AID493246 (Drosophila RNAi Screening Center, 2011).
Purpose: 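Genome-wide search for dsRNAs that reduce cell number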 (primary screen). Cell system: Drosophila Kc and S2R+ cells. Knock-down reagent: long dsRNA against Drosophila genes. Measurement: 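Cell number per well after knock-down, printed as raw plate values; calls were based on per-plate z-scores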. Scale: Kc cell number and S2R+ cell number: higher = more cells remaining. Call rule: 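Active when the per-plate z-score of cell number is 3 or more in the direction of fewer cells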.
The screen tested about 21,000 reagents; this is a random part of those that have a named target and a result. In the full data, 429 (2%) got an active call. 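Values are raw and not normalised between plates; calls rest on per-plate z-scores that were not deposited.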 A number with no mark means an inactive call. Names joined by + are all predicted targets of the reagent. The record does not give: the amount of reagent, the time to read-out.

target gene	dsRNA	Kc cell number, rep 1	Kc cell number, rep 2	S2R+ cell number, rep 1	S2R+ cell number, rep 2
Cyp28a5 (GeneID 34817)	DRSC03297	1.54e6	1.60e6	1.27e6	1.18e6
Cul5 (GeneID 43434)	DRSC14723	1.49e6	1.55e6	1.10e6	1.16e6
CG33288 (GeneID 2768968)	DRSC11484	1.67e6	1.75e6	1.15e6	1.38e6
Set8 (GeneID 41743)	DRSC15473	1.32e6	1.39e6	1.12e6	1.20e6
CG32645 (GeneID 32264)	DRSC19683	1.65e6	1.70e6	1.05e6	1.25e6
CG32645 (GeneID 32264)	DRSC19889	1.58e6	1.64e6	1.06e6	1.17e6
Listericin (GeneID 36183)	DRSC07334	1.73e6	1.77e6	1.11e6	1.31e6
CG4041 (GeneID 31422)	DRSC18339	1.60e6	1.59e6	1.09e6	1.21e6
hpRNA:CR18854 + IP3K1	DRSC02218	1.31e6	1.42e6	1.04e6	1.16e6
PH4alphaSG1 (GeneID 326112)	DRSC15080	1.42e6	1.44e6	9.70e5	1.09e6
dbf (GeneID 34462)	DRSC02570	1.68e6	1.70e6	1.26e6	1.52e6
CG7611 (GeneID 40386)	DRSC11840	1.55e6	1.57e6	1.37e6	1.34e6
Prp38 (GeneID 35934)	DRSC07060	1.11e6	1.25e6	8.47e5	7.92e5
CG15534 (GeneID 43613)	DRSC15070	1.48e6	1.64e6	9.24e5	1.05e6
noc (GeneID 34847)	DRSC03580	1.29e6	1.33e6	1.33e6	1.32e6
CG1440 (GeneID 31776)	DRSC17915	1.87e6	1.79e6	1.12e6	1.29e6
Acbp6 (GeneID 38782)	DRSC10217	1.60e6	1.40e6	1.05e6	1.21e6
qkr58E-2 (GeneID 37562)	DRSC04710	1.64e6	1.73e6	1.27e6	1.44e6
Poxm (GeneID 40990)	DRSC16793	1.34e6	1.34e6	9.87e5	1.13e6
CG3270 (GeneID 35575)	DRSC04988	1.34e6	1.38e6	1.19e6	1.25e6
dbo (GeneID 53556)	DRSC11339	1.33e6	1.43e6	1.27e6	1.29e6
Helz (GeneID 39613)	DRSC11072	1.52e6	1.56e6	1.28e6	1.28e6
Dus3 (GeneID 35264)	DRSC02059	1.50e6	1.70e6	1.34e6	3.98e5
nAChRbeta2 (GeneID 42920)	DRSC17010	1.71e6	1.62e6	1.29e6	1.32e6
